Here are results for 4 targets from the supplement of paper PMC12819154, “High-throughput peptide-centric local stability assay extends protein–ligand identification to membrane proteins, tissues and bacteria” (Nature Structural & Molecular Biology, 2025).

Sequences of proteins named here, by UniProt entry; tags and fusion partners are left off. A change or cut given only in a name is not applied to a line headed by its entry.
UniProt Q9CR95: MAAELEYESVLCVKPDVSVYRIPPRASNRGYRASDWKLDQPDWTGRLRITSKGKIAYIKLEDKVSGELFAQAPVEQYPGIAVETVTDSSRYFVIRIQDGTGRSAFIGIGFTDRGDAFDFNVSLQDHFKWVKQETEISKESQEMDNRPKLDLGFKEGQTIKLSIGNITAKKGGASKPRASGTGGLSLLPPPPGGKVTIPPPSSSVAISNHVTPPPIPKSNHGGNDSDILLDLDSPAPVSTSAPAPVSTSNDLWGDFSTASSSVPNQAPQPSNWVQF
UniProt Q9CXR4: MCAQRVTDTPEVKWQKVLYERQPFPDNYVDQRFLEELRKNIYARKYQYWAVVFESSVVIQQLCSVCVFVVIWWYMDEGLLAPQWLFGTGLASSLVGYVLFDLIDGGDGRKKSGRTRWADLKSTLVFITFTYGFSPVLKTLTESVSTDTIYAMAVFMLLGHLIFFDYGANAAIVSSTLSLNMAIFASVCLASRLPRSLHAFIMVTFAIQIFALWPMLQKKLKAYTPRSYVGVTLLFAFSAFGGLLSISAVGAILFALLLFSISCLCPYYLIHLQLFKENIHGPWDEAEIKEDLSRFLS
UniProt Q9CYI0: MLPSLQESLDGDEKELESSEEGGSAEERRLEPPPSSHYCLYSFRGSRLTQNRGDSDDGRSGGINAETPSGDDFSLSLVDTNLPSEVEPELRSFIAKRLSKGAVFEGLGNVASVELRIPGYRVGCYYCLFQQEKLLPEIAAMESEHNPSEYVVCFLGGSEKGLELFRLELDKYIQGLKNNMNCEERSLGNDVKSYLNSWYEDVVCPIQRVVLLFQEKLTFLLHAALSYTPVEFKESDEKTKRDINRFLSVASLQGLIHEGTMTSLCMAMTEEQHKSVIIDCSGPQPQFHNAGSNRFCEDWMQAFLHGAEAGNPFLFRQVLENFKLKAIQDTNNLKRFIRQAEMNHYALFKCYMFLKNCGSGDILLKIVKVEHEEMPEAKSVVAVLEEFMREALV
UniProt Q9CWI3, whole entry: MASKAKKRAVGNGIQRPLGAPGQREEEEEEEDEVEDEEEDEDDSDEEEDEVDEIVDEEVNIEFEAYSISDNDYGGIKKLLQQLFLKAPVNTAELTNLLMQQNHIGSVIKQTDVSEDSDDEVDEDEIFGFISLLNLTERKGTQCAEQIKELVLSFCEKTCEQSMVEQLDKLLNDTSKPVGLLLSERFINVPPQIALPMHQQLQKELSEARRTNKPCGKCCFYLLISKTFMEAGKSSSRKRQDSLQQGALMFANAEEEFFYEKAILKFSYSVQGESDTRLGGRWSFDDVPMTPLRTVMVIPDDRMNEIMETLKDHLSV

Some of the results follow. Small differences around the control level are noise.

Compound in the experiment: CN[C@@H]1C[C@H]2O[C@@](C)([C@@H]1OC)n1c3ccccc3c3c4c(c5c6ccccc6n2c5c31)C(=O)NC4 [staurosporine]
The experiment is described as follows: log2 fold change of tryptic peptide abundance, ligand vs vehicle (limited proteolysis) (log2 ratio); higher = more trypsin-susceptible (destabilized). As to conditions: ligand concentration: 20 uM; sample: mouse liver crude lysate; replicate design: treated separately.
“UniProt Q9CR95 (peptide sequence: LDLGFKEGQTIK, peptide start residue: 149)”: the log2 fold change is -0.152.

In the case of “UniProt Q9CXR4 (peptide sequence: FLEELRK, peptide start residue: 33)”, the log2 fold change was 0.276.

As for “UniProt Q9CYI0 (peptide sequence: NNMNCEER, peptide start residue: 178)”, the log2 fold change is -0.492.

Consider “UniProt Q9CWI3 (peptide sequence: LLNDTSKPVGLLLSER, peptide start residue: 170)”, for which the log2 fold change was 0.252.
